Experimental data reported in patent publication US20130052268A1, “COMPOSITIONS AND METHODS FOR TREATMENT OF PARKINSON'S DISEASE” (THE MCLEAN HOSPITAL CORPORATION, priority 2010, published 2013).
Where cells or extracts were used, other partners may take part. Where a protein sequence is shown, tags need not be part of it.

target: T1, Lmx1a (Mus musculus) (UniProt Q9JKU8); assay: EMSA; conditions: supershifted by anti-Lmx1a; 60 mM KCl, 1 ug poly(dI-dC); protein in a lysate after overexpression; label: 32P
T1 sequence (looked up, limits assumed): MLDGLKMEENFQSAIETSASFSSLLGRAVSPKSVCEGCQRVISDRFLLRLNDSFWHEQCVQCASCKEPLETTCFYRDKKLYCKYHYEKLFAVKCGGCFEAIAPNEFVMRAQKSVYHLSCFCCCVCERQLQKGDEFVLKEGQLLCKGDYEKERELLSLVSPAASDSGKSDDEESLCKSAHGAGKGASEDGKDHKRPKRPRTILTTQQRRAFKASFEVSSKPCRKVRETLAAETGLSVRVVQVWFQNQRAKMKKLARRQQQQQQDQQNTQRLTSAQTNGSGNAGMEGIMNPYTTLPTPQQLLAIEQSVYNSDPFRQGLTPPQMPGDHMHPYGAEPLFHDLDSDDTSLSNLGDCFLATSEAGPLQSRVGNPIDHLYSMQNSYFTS

Binding result, binds:
CTATGAGTGCACGTCGTTAATCACAAACACACACA / GTGTGTGTGTTTGTGATTAACGACGTGCACTCATA [Wnt1 promoter Lmx1a binding site]
GTGATAAGAAATAAATCTAATTACCATATCCTTTGAATA / CTATTCAAAGGATATGGTAATTAGATTTATTTCTTATCA [Nurr1 promoter Lmx1a binding site]
CTTGCAAACACTTAATCCAAAAACGCCAA / GTTGGCGTTTTTGGATTAAGTGTTTGCAA [Pitx3 promoter Lmx1a binding site]
